Measured values taken from article PMC4618059.
Results are given in words; binding and its absence hold for the method and conditions named. In cells and extracts the contact can be indirect. Here binding means that the protein was enriched with, or labelled near, the bait; the list need not be complete.

T1: MAS C-terminal tail (Ct) peptide, residues 301 to 325 of human MAS receptor, N-terminal biotin, C316S (human)
T1 sequence (peptide, biotin on the N-terminus): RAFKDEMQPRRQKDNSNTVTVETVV

B1: SC24C (mouse) (protein, UniProt G3X972 1-1096)
chain: MNVNQSAPPVPPYGQNQPIYPGYHQSSYGGQPGPAAPATPYGAYNGPVPGYQQAPPQGVPRAPPSSGAPPASAAQVPCGQTTYGQFGQGDIQNGPSSTAQMQRVPGSQQFGPPLAPVVSQPAVLQPYGPPPTSTQVTAQLAGMQISGAVAQAPPPSGLGYGPPTSLASASGNFPNSGPYGSYPQSQAPPLSQAQGHPGVQPPLRSAPPLASSFTSPASGGPQMPSMTGLLPPGQGFGSLPVNQANHVSSPPAPALPPGTQMTGPPVPPPPPMHSPQQPGYQLQQNGSFGPARGPQPNYESPYPGAPTFGSQPGPPQPLPPKRLDPDAIPSPIQVIEDDRNNRGSEPFVTGVRGQVPPLVTTNFLVKDQGNASPRYIRCTSYNIPCTSDMAKQAQVPLAAVIKPLARLPPEEASPYVVDHGESGPLRCNRCKAYMCPLMTFIEGGRRFQCSFCSCVNDVPPQYFQHLDHTGKRVDAYDRPELSLGSYEFLATVDYCKNNKFPSPPAFIFMIDVSYNAIRTGLVRLLCEELKSLLDYLPREGGAEESAIRVGFVTYNKVLHFYNVKSSLAQPQMMVVSDVADMFVPLLDGFLVNVSESRAVITSLLDQIPEMFADTRETETVFAPVIQAGMEALKAAECAGKLFLFHTSLPIAEAPGKLKNRDDRKLINTDKEKTLFQPQTGTYQTLAKECVAQGCCVDLFLFPNQYVDVATLSVVPQLTGGSVYKYACFQVENDQERFLSDLRRDVQKVVGFDAVMRVRTSTGIRAVDFFGAFYMSNTTDVELAGLDGDKTVTVEFKHDDRLNEENGALLQCALLYTSCAGQRRLRIHNLALNCCTQLADLYRNCETDTLINYMAKFAYRAVLNSPVKTVRDTLITQCAQILACYRKNCASPSSAGQLILPECMKLLPVYLNCVLKSDVLQPGAEVTTDDRAYVRQLVSSMDVAETNVFFYPRLLPLTKSPLDSTAEPPAVRASEERLSSGDIYLLENGLNLFVWVGASVQQGVVQSLFNVSSFSQITSGLSVLPVLDNPLSKKVRGLIDSLRAQRMRYMKLIVVKQEDKLEMLFKHFLVEDKSLSGGASYVDFLCHMHKEIRQLLS
B2: SHOC2 (protein, UniProt O88520 1-582)
chain: MSSSLGKEKDSKEKDPKVPSAKEREKESKASGGFGKESKEKEPKAKGKDAKDGKKESSAAQPGVAFSVDNTIKRPNPAPGTRKKSSNAEVIKELNKCREENSMRLDLSKRSIHILPPSVKELTQLTELYLYSNKLQSLPAEVGCLVNLMTLALSENSLTSLPDSLDNLKKLRMLDLRHNKLREIPSVVYRLDSLTTLYLRFNRITTVEKDIKNLPKLSMLSIRENKIKQLPAEIGELCNLITLDVAHNQLEHLPKEIGNCTQITNLDLQHNDLLDLPDTIGNLSSLNRLGLRYNRLSAIPRSLAKCSALEELNLENNNISTLPESLLSSLVKLNSLTLARNCFQLYPVGGPSQFSTIYSLNMEHNRINKIPFGIFSRAKVLSKLNMKDNQLTSLPLDFGTWTSMVELNLATNQLTKIPEDVSGLVSLEVLILSNNLLKKLPHGLGNLRKLRELDLEENKLESLPNEIAYLKDLQKLVLTNNQLSTLPRGIGHLTNLTHLGLGENLLTHLPEEIGTLENLEELYLNDNPNLHSLPFELALCSKLSIMSIENCPLSHLPPQIVAGGPSFIIQFLKMQGPYRAMV
B3: SNTB1 (mouse) (protein, UniProt Q99L88 1-537)
chain: MAVAAAAVAAPAGGGGARAQRSGLLEVLVRDRWHKVLVNLSEDALVLSCEEGAAAYNGIGAATNGSFCRGSGTGHPVPGVAQAPDSPAGVRTAFTDLPEQVPESISNQKRGVKVLKQELGGLGISIKGGKENKMPILISKIFKGLAADQTQALYVGDAILSVNGADLRDATHDEAVQALKRAGKEVLLEVKYMREATPYVKKGSPVSEIGWETPPPESPRLGGGSAEPLSSQSFSFHRDRKSIPLKMCYVTRNMTLADPENRQLEIHSPDAKHTVILRSKDSATAQAWFSAIHSNAGDLLTRVVADIREQLGKTGIAGSREIRHLGWLAEKVPGESEKQWKPALVVLTEKDLLIYDSMPRRKEAWFSPVHSYPLLATRLVHSGPGKGSPQAGMDLSFATRTGTKQGIETHLFRAEISRDLSHWTRSIVQGCHNSAELTAEITTACTYRNQECRLTIHYDNGFSISTEPQDGAFPKTIIQSPYEKLKMSSDDGIRMLYLDFGGKEGEIQLDLHSCPKPIVFIIHSFLSAKITRLGLVA
B4: DTNA (mouse) (protein, UniProt Q9D2N4 1-746)
chain: MIEDSGKRGNTMAERRQLFAEMRAQDLDRIRLSTYRTACKLRFVQKKCNLHLVDIWNVIEALRENALNNLDPNIELNVARLEAVLSTIFYQLNKRMPTTHQIHVEQSISLLLNFLLAAFDPEGHGKISVFAVKMALATLCGGKIMDKLRYIFSMISDSSGVMVYGRYDQFLREVLKLPTAVFEGPSFGYTEQSARSCFSQQKKVTLNGFLDTLMSDPPPQCLVWLPLLHRLANVENVFHPVECSYCHSESMMGFRYRCQQCHNYQLCQDCFWRGHAGGSHSNQHQMKEYTSWKSPAKKLTNALSKSLSCASSREPLHPMFPDQPEKPLNLAHIVPPRPVTSMNDTLFSHSVPSSGSPFITRSSPPKDSEVEQNKMLARAAPAFLKGRGIQYSLNVADRLADEHVLIGLYVNMLRNDPPCMLESSNRLDEEHRLIARYAARLAAESSSSQPTQQRSAPDISFTIDANKQQRQLIAELENKNREILQEIQRLRVEHEQASQPTPEKAQQNPTLLAELRLLRQRKDELEQRMSALQESRRELMVQLEGLMKLLKEEELKQGTQGASSPRSSPSHTISRPIPMPIRSASACPTPTHTPQDSLTGVGGDVQEAFAQSSRRNLRSDLLVAADSITNTMSSLVKELNSEVASETESTVDSEFSRPQFEDLAPSPTSEKAFLAQIHSRKPGYIHGGAASTTHGDMVPEDGDPYTQPEDGNYENESVRQLENELQLEEYLKQKLQDEAYQVSLQG
B5: SGCD (protein, UniProt P82347 1-289)
chain: MPQEQYSHHRSTMPSSEGPHIYKVGIYGWRKRCLYFFVLLLMILILVNLAMTIWILKVMNFTIDGMGNLRITEKGLKLEGDSEFLQPLYAKEIKSRPGNALYFKSARNVTVNILNDQTKVLTQLVTGPKAVEAYGKRFEVKTVSGKLLFSADDSEVVVGAERLRVLGAEGTVFPKSIETPNVRADPFKELRLESPTRSLVMEAPKGVEINAEAGNMEAICRSELRLESKDGEIKLDAAKIKLPRLPRGSYTPTGTRQKVFEVCVCANGRLFLSQAGTGSTCQINTSVCL
B6: DTNB (mouse) (protein, UniProt O70585 1-659)
chain: MIEEGGNKRKTMAEKRQLFIEMRAQNFDVIRLSTYRTACKLRFVQKRCNLHLVDIWNMIEAFRDNGLNTLDHSTEISVSRLETVISSIYYQLNKRLPSTHQISVEQSISLLLNFMVAAYDSEGRGKLTVFSVKAMLATMCGGKMLDKLRYIFSQMSDSNGLMMFGKLDQFLKEALKLPTAVFEGPSFGYTEHAVRTCFPQQKKIMLNMFLDTMMADPPPQCLVWLPLMHRLAHVENVFHPVECSYCHCESMMGFRYRCQQCHNYQLCQNCFWRGHASGAHSNQHQMKEHSSWKSPAKKLSHAISKSLGCVPSREPPHPVFPEQPEKPLDLAHLVPPRPLTNMNDTVVSHMSSGVPTPTKRLQYSQDMPNLLADEHALIASYVARLQHCTRVLDSPSRLDEEHRLIARYAARLAAEAGNMTRPPTDASFNFDANKQQRQLIAELENKNREILQEIQRLRLEHEQASQPTPEKAQQNPMLLAELRLLRQRKDELEQRMSALQESRRELMVQLEGLMKLLKAQATGSPHTSPTHGGGRPMPMPVRSTSAGSTPTHGPQDSLSGVGGDVQEAFAQGTRRNLRNDLLVAADSITNTMSSLVKELHSGAEAEEQAGTEKTREGLPPRGTFLSVFLLHTWTKLAGCQTHSTSRERSQAYGKWGGTA

molecular target: T1, MAS C-terminal tail (Ct) peptide, residues 301 to 325 of human MAS receptor, N-terminal biotin, C316S (human); experiment: affinity purification with mass spectrometry; biotinylated MAS Ct peptide immobilised on NeutrAvidin agarose resin; HL-1 cell lysate (~6 mg), overnight at 4°C; washes with D-PBS; elution with 2% SDS; LC-MS of whole gel lanes; resin alone as control; only the target purified

Row | binding | Binder
1 | binds | B1
2 | binds | B2
3 | binds | B3
4 | binds | B4
5 | binds | B5
6 | binds | B6
